# Source: patent publication US20150157647A1, “METHODS AND CO[…] TO ACUTE RESPIRATORY DISTRESS SYNDROME” (priority 2013, published 2015)
# “And” between values parts separate entries of the source, which are not always exact repeats. Equal values may be shown once.
# Test: Serum MBG in rat model of ARDS
# Type: in vivo
# Conditions: for Rat serum MBG: individual animals; for Rat serum MBG, mean: mean of 5
# [1] = rats with induced ARDS-like syndrome
compound,measurement,setting,value
"C[C@]12CC[C@H](O)C[C@@]1(O)CC[C@@H]1[C@@H]2CC[C@]2(C)[C@@H](c3ccc(=O)oc3)C[C@H]3O[C@]132 [MBG, marinobufagenin]",Rat serum MBG,control (sham) rats,8.5 pg/mL and 10.1 pg/mL and 10.9 pg/mL and 10.0 pg/mL and 7.5 pg/mL
same,"Rat serum MBG, mean",control (sham) rats,9.4 pg/mL
same,Rat serum MBG,[1],40.2 pg/mL and 46.7 pg/mL and 26.7 pg/mL and 23.2 pg/mL and 36.4 pg/mL
same,"Rat serum MBG, mean",[1],34.6 pg/mL
